Laboratory results taken from US6472175B1, “Sialylation of N-linked glycoproteins in the baculovirus expression vector system” (Boyce Thompson Institute For Plant Research, Inc., priority 1999, dated 2002).
For at least one compound, name, drawing or mass did not settle the structure.

Test system: Tn-4h cells
Test: Sialylation of baculovirus-expressed SEAP N-linked glycans, normal phase HPLC of 2-AB-labeled glycans
Assay type: cell-based, Trichoplusia ni
Settings: normal gravity, culture media supplemented, insect tissue culture cells
Description: Once the SEAP protein is purified, the oligosaccharide moieties are cleaved from the glycoprotein with peptide N-glycosidase F (cleaves oligomannose, hybrid and complex oligosaccharides with or without terminal sialic acid residues). The oligosaccharides are then bonded to a fluorophore marker. The labeled sugar can be digested with various glycosidases that cleave specific linkages. The samples are analyzed by HPLC. Normal phase HPLC fractionations are carried out with a 50 mM ammonium phosphate, pH 4.4, and acetonitrile gradient on a Glyco Sep-N column (OGS, Oxford, UK) by a technique being known in the art, and incorporated by reference (Guile et al., 1996; Mattu et al., 1998). The Glyco Sep-N column is capable of resolving both neutral and charged sugar residues based on hydrophilicity (related to the hydrodynamic volume and molecular size). To obtain accurate glucose equivalency values, the GlycoSep-N is calibrated with a 2-aminobenzamide (2-AB) labeled dextran hydrolysate ladder and glucose homopolymers. The 2-AB fluorescence is detected and quantified using a Waters^a 474 Scanning Fluorescence Detector (Waters Corporation, MA) at λex 330 nm and λcm 420 nm using a 16 μl flow cell.
Since substrate levels can affect sialylation, it was hypothesized that the microgravity-mediated sialylation might have resulted from an increase in substrate availability. […]

C[C@@H]1C[C@H]2[C@@H]3CCC4=CC(=O)C=C[C@]4(C)[C@@]3(F)[C@@H](O)C[C@]2(C)[C@@]1(O)C(=O)CO [dexamethasone]
induction of complex, sialylated glycans on a secreted human glycoprotein: induced to produce complex, sialylated glycans
